# Experimental data reported in the supplement of paper PMC8728848.
# The list shows a part of the results.
# B1: EULS2 M3 (Oryza sativa) (protein)
# chain: MVYCRANPNYAMTARNGAVVLAPANPKDEYQHWIKDMRWSTSIKDEEGYPAFALVNKATGQAIKHSLGQSHPVRLVPYNPEVMDESVLWTESRDVGNGFRCIRMVNNIYLNFDAFHGDKYHGGVRDGTDIVLWKLCEGDSLRWKIQPYYILEQKLISEEDLNSAVDHHHHHH
# How the values were obtained:
# Assay in all cases: glycan array binding signal (z-score within array); higher = stronger binding
# Settings in all cases: glycan notation: IUPAC condensed, linker removed
# [1] = target: Fuc(a1-2)Gal
# How it was run: (§1)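 Glycan array data were curated from 3228 arrays in the Consortium for Functional Glycomics database and kept only where the protein sequence was available. Glycan names were converted to IUPAC-condensed notation, and columns mapping to the same glycan were averaged. The binding signal is a within-array Z-score, averaged across arrays of the same protein sequence at different concentrations or buffers and across linkers. Negative Z-scores can be read as non-binding.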
# [2] = target: Fuc(a1-2)Gal(b1-3)GalNAc
# How it was run: as §1
# [3] = target: Fuc(a1-2)Gal(b1-3)GalNAc(a1-3)[Fuc(a1-2)]Gal(b1-4)Glc
# How it was run: as §1
# [4] = target: Fuc(a1-2)Gal(b1-3)GalNAc(a1-3)[Fuc(a1-2)]Gal(b1-4)GlcNAc
# How it was run: as §1
# [5] = target: Fuc(a1-2)Gal(b1-3)GalNAc(b1-3)Gal
# How it was run: as §1
# [6] = target: Fuc(a1-2)Gal(b1-3)GalNAc(b1-3)Gal(a1-4)Gal(b1-4)Glc
# How it was run: as §1
# [7] = target: Fuc(a1-2)Gal(b1-3)GalNAc(b1-4)[Neu5Ac(a2-3)]Gal(b1-4)Glc
# How it was run: as §1
# [8] = target: Fuc(a1-2)Gal(b1-3)GlcNAc
# How it was run: as §1
# [9] = target: Fuc(a1-2)Gal(b1-3)GlcNAc(b1-2)Man(a1-3)[Fuc(a1-2)Gal(b1-3)GlcNAc(b1-2)Man(a1-6)]Man(b1-4)GlcNAc(b1-4)GlcNAc
# How it was run: as §1
# [10] = target: Fuc(a1-2)Gal(b1-3)GlcNAc(b1-2)Man(a1-3)[Fuc(a1-2)Gal(b1-3)GlcNAc(b1-2)Man(a1-6)]Man(b1-4)GlcNAc(b1-4)[Fuc(a1-6)]GlcNAc
# How it was run: as §1
# [11] = target: Fuc(a1-2)Gal(b1-3)GlcNAc(b1-3)Gal(b1-4)Glc
# How it was run: as §1
# [12] = target: Fuc(a1-2)Gal(b1-3)GlcNAc(b1-3)GalNAc
# How it was run: as §1
# [13] = target: Fuc(a1-2)Gal(b1-3)GlcNAc(b1-3)[Fuc(a1-2)Gal(b1-3)GlcNAc(b1-6)]GalNAc
# How it was run: as §1
# [14] = target: Fuc(a1-2)Gal(b1-3)GlcNAc(b1-3)[Gal(b1-4)GlcNAc(b1-6)]Gal(b1-4)Glc
# How it was run: as §1
# [15] = target: Fuc(a1-2)Gal(b1-3)GlcNAc(b1-3)[Neu5Ac(a2-6)Gal(b1-4)GlcNAc(b1-6)]Gal(b1-4)Glc
# How it was run: as §1
# [16] = target: Fuc(a1-2)Gal(b1-3)GlcNAc6S
# How it was run: as §1
# [17] = target: Fuc(a1-2)Gal(b1-3)[Fuc(a1-4)]GlcNAc
# How it was run: as §1
# [18] = target: Fuc(a1-2)Gal(b1-3)[Fuc(a1-4)]GlcNAc(b1-2)Man(a1-3)[Fuc(a1-2)Gal(b1-3)[Fuc(a1-4)]GlcNAc(b1-2)Man(a1-3)]Man(b1-4)GlcNAc(b1-4)GlcNAc
# How it was run: as §1
# [19] = target: Fuc(a1-2)Gal(b1-3)[Fuc(a1-4)]GlcNAc(b1-2)Man(a1-3)[Fuc(a1-2)Gal(b1-3)[Fuc(a1-4)]GlcNAc(b1-2)Man(a1-6)]Man(b1-4)GlcNAc(b1-4)[Fuc(a1-6)]GlcNAc(b1-4)[Fuc(a1-6)]GlcNAc
# How it was run: as §1
# [20] = target: Fuc(a1-2)Gal(b1-3)[Fuc(a1-4)]GlcNAc(b1-3)[Fuc(a1-3)[Gal(b1-4)]GlcNAc(b1-6)]Gal(b1-4)Glc
# How it was run: as §1
# [21] = target: Fuc(a1-2)Gal(b1-3)[Fuc(a1-4)]GlcNAc(b1-3)[Gal(b1-4)GlcNAc(b1-6)]Gal(b1-4)Glc
# How it was run: as §1
# [22] = target: Fuc(a1-2)Gal(b1-4)Glc
# How it was run: as §1
# [23] = target: Fuc(a1-2)Gal(b1-4)Glc6S
# How it was run: as §1
# [24] = target: Fuc(a1-2)Gal(b1-4)GlcNAc
# How it was run: as §1
# [25] = target: Fuc(a1-2)Gal(b1-4)GlcNAc(b1-2)Man
# How it was run: as §1
# [26] = target: Fuc(a1-2)Gal(b1-4)GlcNAc(b1-2)Man(a1-3)[Fuc(a1-2)Gal(b1-4)GlcNAc(b1-2)Man(a1-6)]Man(b1-4)GlcNAc(b1-4)GlcNAc
# How it was run: as §1
# [27] = target: Fuc(a1-2)Gal(b1-4)GlcNAc(b1-2)Man(a1-3)[Fuc(a1-2)Gal(b1-4)GlcNAc(b1-2)Man(a1-6)]Man(b1-4)GlcNAc(b1-4)[Fuc(a1-6)]GlcNAc
# How it was run: as §1
# [28] = target: Fuc(a1-2)Gal(b1-4)GlcNAc(b1-2)[Fuc(a1-2)Gal(b1-4)GlcNAc(b1-4)]Man(a1-3)[Fuc(a1-2)Gal(b1-4)GlcNAc(b1-2)Man(a1-6)]Man(b1-4)GlcNAc(b1-4)GlcNAc
# How it was run: as §1
# [29] = target: Fuc(a1-2)Gal(b1-4)GlcNAc(b1-3)Gal(b1-4)GlcNAc
# How it was run: as §1
# [30] = target: Fuc(a1-2)Gal(b1-4)GlcNAc(b1-3)Gal(b1-4)GlcNAc(b1-2)Man(a1-3)[Fuc(a1-2)Gal(b1-4)GlcNAc(b1-3)Gal(b1-4)GlcNAc(b1-2)Man(a1-6)]Man(b1-4)GlcNAc(b1-4)GlcNAc
# How it was run: as §1
# [31] = target: Fuc(a1-2)Gal(b1-4)GlcNAc(b1-3)Gal(b1-4)GlcNAc(b1-3)Gal(b1-4)GlcNAc
# How it was run: as §1
# [32] = target: Fuc(a1-2)Gal(b1-4)GlcNAc(b1-3)GalNAc
# How it was run: as §1
# [33] = target: Fuc(a1-2)Gal(b1-4)GlcNAc(b1-3)[Fuc(a1-2)Gal(b1-4)GlcNAc(b1-6)]GalNAc
# How it was run: as §1
# [34] = target: Fuc(a1-2)Gal(b1-4)GlcNAc(b1-3)[Fuc(a1-3)[Gal(b1-4)]GlcNAc(b1-6)]Gal(b1-4)Glc
# How it was run: as §1
# [35] = target: Fuc(a1-2)Gal(b1-4)GlcNAc(b1-6)GalNAc
# How it was run: as §1
# [36] = target: Fuc(a1-2)Gal(b1-4)GlcNAc6S
# How it was run: as §1
# [37] = target: Fuc(a1-2)Gal(b1-4)[Fuc(a1-3)]GlcNAc
# How it was run: as §1
# [38] = target: Fuc(a1-2)Gal(b1-4)[Fuc(a1-3)]GlcNAc(b1-2)Man(a1-3)[Fuc(a1-2)Gal(b1-4)[Fuc(a1-3)]GlcNAc(b1-2)Man(a1-6)]Man(b1-4)GlcNAc(b1-4)[Fuc(a1-6)]GlcNAc
# How it was run: as §1
# [39] = target: Fuc(a1-2)Gal(b1-4)[Fuc(a1-3)]GlcNAc(b1-2)[Fuc(a1-2)Gal(b1-4)[Fuc(a1-3)]GlcNAc(b1-4)]Man(a1-3)[Fuc(a1-2)Gal(b1-4)[Fuc(a1-3)]GlcNAc(b1-2)Man(a1-6)]Man(b1-4)GlcNAc(b1-4)GlcNAc
# How it was run: as §1
# [40] = target: Fuc(a1-2)Gal(b1-4)[Fuc(a1-3)]GlcNAc(b1-3)Gal(b1-4)[Fuc(a1-3)]GlcNAc
# How it was run: as §1
# [41] = target: Fuc(a1-2)Gal(b1-4)[Fuc(a1-3)]GlcNAc(b1-3)Gal(b1-4)[Fuc(a1-3)]GlcNAc(b1-3)Gal(b1-4)[Fuc(a1-3)]GlcNAc
# How it was run: as §1
# [42] = target: Fuc(a1-2)Gal(b1-4)[Fuc(a1-3)]GlcNAc(b1-3)GalNAc
# How it was run: as §1
# [43] = target: Fuc(a1-2)Gal(b1-4)[Fuc(a1-3)]GlcNAc(b1-3)[Neu5Ac(a2-6)Gal(b1-4)GlcNAc(b1-6)]Gal(b1-4)Glc
# How it was run: as §1
# [44] = target: Fuc(a1-2)Gal3S(b1-4)GlcNAc
# How it was run: as §1
# [45] = target: Fuc(a1-2)Gal6S(b1-3)GlcNAc
# How it was run: as §1
binder,measurement,setting,value
B1,glycan array binding signal (z-score),[1],-0.216
same,glycan array binding signal (z-score),[2],-0.118
same,glycan array binding signal (z-score),[3],0.339
same,glycan array binding signal (z-score),[4],0.09
same,glycan array binding signal (z-score),[5],-0.394
same,glycan array binding signal (z-score),[6],-0.265
same,glycan array binding signal (z-score),[7],-0.514
same,glycan array binding signal (z-score),[8],-0.233
same,glycan array binding signal (z-score),[9],0.145
same,glycan array binding signal (z-score),[10],-0.142
same,glycan array binding signal (z-score),[11],-0.226
same,glycan array binding signal (z-score),[12],-0.773
same,glycan array binding signal (z-score),[13],0.044
same,glycan array binding signal (z-score),[14],-0.311
same,glycan array binding signal (z-score),[15],0.124
same,glycan array binding signal (z-score),[16],-0.14
same,glycan array binding signal (z-score),[17],0.515
same,glycan array binding signal (z-score),[18],0.396
same,glycan array binding signal (z-score),[19],-0.267
same,glycan array binding signal (z-score),[20],-0.237
same,glycan array binding signal (z-score),[21],-0.129
same,glycan array binding signal (z-score),[22],-0.561
same,glycan array binding signal (z-score),[23],-0.417
same,glycan array binding signal (z-score),[24],-0.331
same,glycan array binding signal (z-score),[25],-0.24
same,glycan array binding signal (z-score),[26],0.621
same,glycan array binding signal (z-score),[27],0.04
same,glycan array binding signal (z-score),[28],-0.411
same,glycan array binding signal (z-score),[29],0.227
same,glycan array binding signal (z-score),[30],0.177
same,glycan array binding signal (z-score),[31],-0.805
same,glycan array binding signal (z-score),[32],-0.15
same,glycan array binding signal (z-score),[33],1.38
same,glycan array binding signal (z-score),[34],-0.313
same,glycan array binding signal (z-score),[35],0.029
same,glycan array binding signal (z-score),[36],-0.605
same,glycan array binding signal (z-score),[37],0.165
same,glycan array binding signal (z-score),[38],0.196
same,glycan array binding signal (z-score),[39],-0.291
same,glycan array binding signal (z-score),[40],-0.306
same,glycan array binding signal (z-score),[41],0.687
same,glycan array binding signal (z-score),[42],1.06
same,glycan array binding signal (z-score),[43],-0.197
same,glycan array binding signal (z-score),[44],-0.367
same,glycan array binding signal (z-score),[45],-0.205

# Rewritten with bars between the fields: part of the list above
binder | measurement | setting | value
B1 | glycan array binding signal (z-score) | [21] | -0.129
same | glycan array binding signal (z-score) | [29] | 0.227
same | glycan array binding signal (z-score) | [34] | -0.313
